According to the supplement of paper PMC7024190:
Where a name gives a salt, the structure may show the parent alone. This is one part of the list. Repeats in this data set agree poorly, so a single value says little.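 A first-round screen of about ten thousand compounds sought those raising reporter output, using human embryonic kidney cells briefly transfected with a plasmid carrying a Renilla luciferase gene driven by the HSV-TK promoter.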

What follows are molecules tested on HEK 293FT (assay: log relative Renilla luciferase luminescence (reporter expression vs reference, reference not stated) (log (base not stated)); higher = higher recombinant reporter expression). Conditions: 10 µM; time after transfection 48 h.
Method: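 HEK 293FT cells transiently transfected with pRL-TK (Renilla luciferase) were treated with compounds at 10 uM and luminescence was read about 42 h later. Values are log relative Renilla luminescence (log base and reference not stated). Single-pass screen; ICCB Known Bioactives library.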
`O=C(O)c1cccnc1Nc1cccc(C(F)(F)F)c1` [Niflumic acid] was tested, and the log was 0.0123. With `CS(=O)(=O)Nc1ccc([N+](=O)[O-])cc1Oc1ccccc1` [Nimesulide] the log was -0.154. `CC(COc1ccccc1)N(CCCl)Cc1ccccc1` (stereo not given) [Phenoxybenzamine] gave a log of -0.253. Molecule `O=C1NC(=O)C(c2ccccc2)(c2ccccc2)N1` [Phenytoin] has a log of 0.164. `CCCCCCCCCCCCCCCCCCOC[C@@H](COP(=O)([O-])OCC[N+](C)(C)C)OC` [1-Octadecyl-2-methylglycero-3 PC] was tested, and the log was 0.0736. `CCCCC/C=C\C/C=C\CCCCCCCC(=O)O` [Linoleic acid] showed a log of -0.203. For `CCCCCCCCCC(=O)NC(CN1CCOCC1)C(O)c1ccccc1` (racemic), the log was -0.298. With `CCCCCCCCCCCCCC(=O)N[C@@H](C)[C@H](O)c1ccccc1` [MAPP, L-erythro] the log was -0.172. Work on `CC(C(C)N1CC(=O)NC(=O)C1)N1CC(=O)NC(=O)C1` (stereo not given) yielded a log of 0.532. For `CC(C)(C)c1cc(C=C(C#N)C(N)=S)cc(C(C)(C)C)c1O`, the log was -0.675. `Cc1cnc(C(=O)NCCc2ccc(S(=O)(=O)NC(=O)NC3CCCCC3)cc2)cn1` [Glipizide] gave a log of 0.0444. With `CCCCCCCCCCCCCCCCCCOC[C@H](COP(=O)([O-])OCC[N+](C)(C)C)OC(C)=O` the log was -0.159. `CCCCC/C=C\C/C=C\CCCCCCCC(=O)O[C@@H](CO)COC(=O)CCCCCCCCCCCCCCCCC` [1-Stearoyl-2-linoleoyl-glycerol] showed a log of -0.0446. `CCCCC[C@H](O)/C=C/C1=C(CCCCCCC(=O)O)C(=O)CC1` [Prostaglandin B1] gave a log of -0.00555. In the case of `CCCCCCCCCCCCCCCC(=O)N[C@H](CN1CCOCC1)[C@H](O)c1ccccc1` (racemic), the log is reported as -0.0917. With `COC(=O)C1=C(C)NC(C)=C([N+](=O)[O-])C1c1ccccc1C(F)(F)F` (stereo not given) the log was -0.177. Work on `COc1ccc2c(c1)CCC1C2CCC2(C)C(NCCCCCCN3C(=O)C=CC3=O)CCC12` (stereo not given) yielded a log of -0.0494. Work on `COC(=O)C1=C(C)NC(C)=C(C(=O)OCCCN2CCC(c3ccccc3)(c3ccccc3)CC2)[C@H]1c1cccc([N+](=O)[O-])c1` [Niguldipine] yielded a log of 0.186. Molecule `CCCCCCCC/C=C\CCCCCCCC(=O)OCC(CO)OC(=O)CCCCCCC/C=C\CCCCCCCC` (stereo not given) [1,2-Dioleoyl-glycerol (18:1)] has a log of -0.276. In the case of `CCCCCCCCCCCCC/C=C/[C@@H](O)[C@H](CO)NC(=O)CCCCCCCCCCCCCCC` [C16 Ceramide], the log is reported as -0.115. With `COc1c(C=O)c(O)cc2c1C(=O)c1ccccc1C2=O` [Damnacanthal] the log was -0.898. Molecule `CCCCC[C@H](O)/C=C/C1=C(C/C=C\CCCC(=O)O)C(=O)CC1` [Prostaglandin B2] has a log of 0.0491. `CCCCC/C=C\C[C@@H](O)/C=C/C=C/C=C\[C@@H](O)CCCC(=O)O` [Leukotriene B4] was tested, and the log was 0.135. Molecule `Nc1cc(N2CCCCC2)nc(N)[n+]1OS(=O)(=O)[O-]` [Minoxidil sulfate] has a log of 0.233. For `CC(C)=CC[C@@H](O)C1=CC(=O)c2c(O)ccc(O)c2C1=O` [Shikonin], the log was -0.77. `CC1=C(C)C(=O)C(CCCCC#CCCCC#CCO)=C(C)C1=O` was tested, and the log was -0.28. `COCc1cc(O)c(O)c(O)c1-c1c(COC)cc(O)c(O)c1O` showed a log of 0.292. With `CCCCC[C@H](O)/C=C/[C@H]1C(=O)C[C@H](O)[C@@H]1C/C=C\CCCC(=O)O` [Prostaglandin D2] the log was -0.0601. With `CCCCCCCCCCOCCC(=O)O` [4-Oxatetradecanoic acid] the log was 0.163. `CC/C=C\C/C=C\C/C=C\C/C=C\C/C=C\CCCC(=O)O` [Eicosapentaenoic acid (20:5 n-3)] gave a log of -0.169. With `CCCCC[C@H](O)/C=C/C=C\C=C\C=C\[C@@H](O)[C@@H](O)CCCC(=O)O` [Lipoxin A4] the log was -0.136. `C/C=C1\C2C=C(C)CC1(N)c1ccc(=O)[nH]c1C2` (stereo not drawn) [Huperzine A [(-)-Huperzine A]] was tested, and the log was -0.13. `CCCCCC(O)CCC1C(O)CC(=O)C1CCCCCCC(=O)O` (stereo not given) [13,14-Dihydro-prostaglandin E1] was tested, and the log was -0.0108. Molecule `CC(C)[C@H](NC(=O)CNC(=O)OC(C)(C)C)C(=O)N[C@H](C=O)C(C)C` has a log of 0.206. Work on `Cc1c2oc3c(C)ccc(C(=O)N[C@@H]4C(=O)N[C@H](C(C)C)C(=O)N5CCC[C@H]5C(=O)N(C)CC(=O)N(C)[C@@H](C(C)C)C(=O)O[C@@H]4C)c3nc-2c(C(=O)N[C@@H]2C(=O)N[C@H](C(C)C)C(=O)N3CCC[C@H]3C(=O)N(C)CC(=O)N(C)[C@@H](C(C)C)C(=O)O[C@@H]2C)c(N)c1=O` [Actinomycin D] yielded a log of -1.45. For `CCCCC/C=C\CC1OC1C/C=C\C/C=C\CCCC(=O)O` (stereo not given) [11,12-Epoxyeicosatrienoic acid], the log was 0.339. For `CC(C)=CCC/C(C)=C/CC/C(C)=C/CSCC(=O)O` [Farnesylthioacetic acid], the log was -0.145. Molecule `CCCCCCCCCCC1=C(C)C(=O)C(OC)=C(OC)C1=O` [Decylubiquinone] has a log of 0.169. With `CC1=C(/C=C/C(C)=C/C=C/C(C)=C/C(=O)O)C(C)(C)CCC1` [Retinoic acid, all trans] the log was -0.305. `CC1(C2CCCC2)Cc2cc(OCC(=O)O)c(Cl)c(Cl)c2C1=O` (stereo not given) gave a log of 0.163.
